# Some of the results follow. Further columns of the screen follow, without active or inactive calls. The list favours compounds with an active or inconclusive main result. Words in brackets tell the shape of the fitted curve; partial curves, single points and poor fits give uncertain potencies.
# Test: qHTS Assay for Modulators of Lamin A Splicing
# Details: HeLa LMNA splicing GFP/RFP minigene ratio, 48 h
# In short: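 S3 HeLa cells stably expressing lamin A-EGFP splicing minigene plus DsRed2, 600 cells/well, 48 h compound exposure at 37C. Laser-scanning cytometry; analysed as GFP (500-530 nm)/RFP (575-640 nm) total intensity ratio; 0.5% DMSO vehicle.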
# [1] = measured here: GFP splicing reporter channel
# [2] = measured here: RFP viability control channel
Compound,AC50 [1],AC50 [2]
C=CCc1cc(Cl)ccc1OCCOCCNCCOC,"0.282 µM [rising, full curve, poor fit]",–
Fc1ccc(NC(=S)NCCN2CCOCC2)cc1,"25.1 µM [falling, partial curve]","35.5 µM [falling, partial curve]"
COc1cc(CCN2C(=O)N[C@@H](c3cccc(C(F)(F)F)c3)C(C(C)=O)=C2C)cc(OC)c1OC,–,"17.8 µM [rising, single point]"
CNCc1c(OCc2ccc(F)cc2)ccc2ccccc12,"35.5 µM [falling, single point]","7.08 µM [falling, partial curve, poor fit]"
CCOC(=O)Cc1csc(NC(=O)CSc2ncnc3c2cnn3-c2ccccc2Cl)n1,–,"25.1 µM [rising, single point]"
Cc1nc2ccn(Cc3cccnc3)c(=O)c2cc1C(=O)N1CCN(c2ccc(F)cc2)CC1,–,"0.0178 µM [falling, full curve, poor fit]"
O=C(O)c1ccccc1C(=O)NNc1cccc(Cl)n1,"0.501 µM [rising, full curve, poor fit]",–
CCS(=O)(=O)N1CC(=O)N(c2ccc(Cl)cc2)C(C)(C(=O)NC2CCCCCC2)C1 (centres undefined),"11.2 µM [falling, partial curve]",–
COc1ccc(CCNC(=O)C(C)n2c(=O)cc(C(F)(F)F)c3c(C)nn(C)c32)cc1OC (centres undefined),"8.91 µM [falling, full curve, poor fit]",–
CCOc1ccccc1/C=N/NC(=O)c1cccc(S(=O)(=O)N2CCOCC2)c1,–,"2.24 µM [falling, partial curve]"
O=C(OC1CCS(=O)(=O)c2sccc21)c1ccccc1 (centres undefined),"5.62 µM [falling, single point]","5.62 µM [falling, single point]"
Cc1cc(NC(=O)CN2C(=O)c3cccnc3Sc3ccccc32)ccc1Br,"39.8 µM [falling, partial curve, poor fit]","22.4 µM [falling, partial curve]"
COc1ccc(-c2csc(-c3[nH]cnc3N)n2)cc1,"2.51 µM [rising, full curve]",–
Cc1nn(C)c(C)c1CN(C)S(=O)(=O)c1ccc(F)cc1,"14.1 µM [rising, single point]","12.6 µM [rising, partial curve]"
O=C(NC1CCN(C(=O)N2c3ccccc3Sc3ccccc32)CC1)c1ccco1,"11.2 µM [rising, partial curve]","14.1 µM [rising, partial curve]"
Cc1ccc(CNC(=O)CCC2CCCN(Cc3c(C)nn(C(C)C)c3C)C2)o1 (centres undefined),–,"0.0178 µM [falling, full curve, poor fit]"
Cc1cc2cc(C#N)c(NCCNC(=S)NCCCN3CCOCC3)nc2cc1C,–,"7.08 µM [rising, partial curve, poor fit]"
Cc1nnc(Sc2nc3c(c(=O)n(C)c(=O)n3C)n2Cc2ccc(Cl)cc2)s1,–,"5.62 µM [falling, partial curve, poor fit]"

Compound,AC50 [1],AC50 [2]
Cc1cccn2c(=O)c(C(=O)NC(C)c3ccccc3)cnc12 (centres undefined),"0.158 µM [rising, full curve, poor fit]",–
CC1CN(c2nc(-c3ccc(Br)cc3)nnc2-c2ccccc2)CC(C)N1 (centres undefined),"14.1 µM [falling, single point]",–
O=C(c1ccco1)n1nc(-c2cccnc2)nc1NCc1ccco1,"1.41 µM [rising, full curve, poor fit]",–
COc1ccc(Nc2oc(-c3ccc(COc4ccccc4C)o3)nc2C#N)cc1,–,"2.24 µM [rising, single point]"
Cc1ccc(CSc2nc3ccccc3c(=O)n2Cc2ccco2)cc1,"22.4 µM [rising, single point]","17.8 µM [rising, partial curve]"
COc1cc(-c2nnc(SCc3cc(=O)oc4cc(O)c(O)cc34)o2)cc(OC)c1OC,"35.5 µM [falling, single point]",–
CCOc1ccc(/C=C/[N+](=O)[O-])c2ccccc12,"10 µM [falling, partial curve]","15.8 µM [falling, partial curve]"
O=C(NCc1c(Cl)cccc1Oc1ccccc1)c1ccccc1,"0.00447 µM [falling, full curve, poor fit]","0.00447 µM [falling, full curve, poor fit]"
CCCCOC(=O)c1ccc(N)cc1,"25.1 µM [rising, partial curve]","7.08 µM [falling, single point]"
CCOc1ccc2cc(S(=O)(=O)N3CCOCC3)ccc2c1,"12.6 µM [falling, partial curve, poor fit]",–
CN1CCCN([C@@H](c2ccccc2)c2ccc(Cl)cc2)CC1,"0.00158 µM [falling, full curve, poor fit]",–
COC(=O)c1ccc(CN2C(=O)NC3(CCCCC3)C2=O)cc1,"0.0891 µM [rising, full curve, poor fit]",–
CCN(CC)C(C(=O)Nc1ccc(C(C)C)cc1)c1ccc2c(c1)OCO2 (centres undefined),"31.6 µM [rising, single point]",–
S=c1nc[nH]c2c1ncn2C1CCCO1 (centres undefined),"0.355 µM [falling, full curve, poor fit]",–
CC1=C(C(=O)NCc2cccc(F)c2)C2(CCCCC2)OC1=O,"14.1 µM [rising, single point]","17.8 µM [rising, single point]"
Cc1cccc(N2C(=O)CN(Cc3cccs3)C2=S)c1,"0.141 µM [falling, full curve, poor fit]","0.0891 µM [falling, full curve, poor fit]"
CCOC(=O)/C(C#N)=C/c1cc(C)n(-c2ccc(C)cc2)c1C,–,"17.8 µM [rising, single point]"
COc1ccc(C(=O)CSc2nnc(CCc3ccccc3)n2-c2ccccc2)cc1,"1.58 µM [falling, partial curve]","1.12 µM [falling, partial curve]"

# Full records, looked up by structure:
# CCOc1ccc2cc(S(=O)(=O)N3CCOCC3)ccc2c1 as listed: AC50 [1]: 12.6 µM [falling, partial curve, poor fit]
# Cc1cccc(N2C(=O)CN(Cc3cccs3)C2=S)c1 as listed: AC50 [1]: 0.141 µM [falling, full curve, poor fit]; AC50 [2]: 0.0891 µM [falling, full curve, poor fit]
